Experimental data reported in the supplement of paper PMC10689618.
Where a name gives a salt, the structure may show the parent alone. Some of the results follow. Single values are uncertain, as repeats are few or missing.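 Labelled rat cortical synaptosomes were engulfed by primary human fetal astrocytes. Engulfment equaled a red/green ratio, corrected for calcein live-cell signal and normalized to the plate median. Compounds were toxic when calcein dropped over 30%, and reduced phagocytosis when below 70% of the median above 5 µM.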

Columns and labels:
Human fetal astrocytes [1] = assay: loss of total cells relative to no-compound high-control median (toxicity); higher = more toxic (fewer cells); conditions: 24 h
Human fetal astrocytes [2] = assay: synaptosome phagocytosis (pHrodo/calcein intensity ratio) relative to plate median of data wells; higher = more phagocytosis; conditions: 24 h

Compound | loss of total cells (Human fetal astrocytes [1]; 1.39 µM) | loss of total cells (Human fetal astrocytes [1]; 2.78 µM) | loss of total cells (Human fetal astrocytes [1]; 5.56 µM) | loss of total cells (Human fetal astrocytes [1]; 11.11 µM) | loss of total cells (Human fetal astrocytes [1]; 22.22 µM) | synaptosome phagocytosis (Human fetal astrocytes [2]; 1.39 µM) | synaptosome phagocytosis (Human fetal astrocytes [2]; 2.78 µM) | synaptosome phagocytosis (Human fetal astrocytes [2]; 5.56 µM) | synaptosome phagocytosis (Human fetal astrocytes [2]; 11.11 µM) | synaptosome phagocytosis (Human fetal astrocytes [2]; 22.22 µM)
Cc1cc(-c2ccccc2)nnc1NCCN1CCOCC1 | -21.6% | -5.2% | -6.9% | -25% | 4.5% | 91.9% | 111% | 112% | 77.3% | 89.5%
CC(=O)O[C@H]1CC[C@]2(C)C(C[C@@H](OC(C)=O)[C@]3(C)C4=CC(=O)O[C@H](c5ccoc5)[C@@]4(C)CCC23)C1(C)C (stereo partly drawn) [3-DEOXO-3beta-ACETOXYDEOXYDIHYDROGEDUNIN] | -8.3% | -2% | 26.7% | -5.8% | 1.1% | 122% | 92.8% | 139% | 97.7% | 78.2%
COCCCOc1ccnc(C[S+]([O-])c2nc3ccccc3[nH]2)c1C (stereo not given) | 5.4% | 14% | 9.2% | -9% | 15.9% | 126% | 84.9% | 110% | 115% | 124%
COc1ccc([C@@H]2CC(=O)c3c(O)cc(O[C@@H]4O[C@H](CO[C@@H]5O[C@@H](C)[C@H](O)[C@@H](O)[C@H]5O)[C@@H](O)[C@H](O)[C@H]4O)cc3O2)cc1O | -4.9% | 4% | -10.3% | 22.3% | 0.7% | 120% | 88.1% | 119% | 95.4% | 126%
Nc1ncnc2c1ncn2[C@@H]1O[C@H](COP(=O)(O)O)[C@@H](O)[C@H]1O | 8% | -33.6% | -3.5% | -3.7% | 6.4% | 111% | 109% | 104% | 116% | 120%
CC(=O)N[C@@H](Cc1c[nH]c2ccccc12)C(=O)O | 9% | 11.2% | 15.2% | -1.3% | 19.7% | 115% | 94.3% | 148% | 100% | 104%
OCCOCCN1CCN(C(c2ccccc2)c2ccc(Cl)cc2)CC1 (stereo not given) | 16.3% | -9.2% | -4.9% | 17% | -5.2% | 92.9% | 99.3% | 109% | 69.3% | 45.5%
CCCCC1(COC(=O)CCC(=O)O)C(=O)N(c2ccccc2)N(c2ccccc2)C1=O | 4.7% | 23.5% | 28.3% | 16.3% | 9.1% | 106% | 131% | 98.2% | 110% | 118%
COc1c(O)cc(O)cc1O | -9.1% | 15.3% | 6.9% | 36.8% | 19.6% | 94% | 129% | 105% | 155% | 133%
C[C@H]1[C@H](C)CC[C@]2(C(=O)O)CC[C@]3(C)C(=CC[C@@H]4[C@@]5(C)C[C@@H](O)[C@H](O)[C@@](C)(CO)[C@@H]5CC[C@]43C)[C@H]12 | -18% | -14.8% | 2.9% | 9.5% | 26.7% | 111% | 104% | 126% | 94.6% | 131%
CC(C)CCC[C@@H](C)[C@H]1CC[C@H]2[C@@H]3CC[C@H]4CC(=O)CC[C@]4(C)[C@H]3CC[C@]12C | 14.8% | 11.9% | 15.9% | -2.1% | -12.1% | 70.8% | 67.9% | 85% | 109% | 92.5%
CC(=O)CC(c1ccccc1)c1c(O)c2ccccc2oc1=O (stereo not given) | 5% | -11.2% | -3.5% | 3.7% | -10% | 121% | 120% | 120% | 102% | 89.9%
CC(=O)Nc1ncc([N+](=O)[O-])s1 | 29% | -29.4% | 5% | -9.5% | -0.9% | 135% | 82.9% | 101% | 62.1% | 93.8%
CC[C@H](C)[C@H](N)C1=N[C@H](C(=O)N[C@@H](CC(C)C)C(=O)N[C@H](CCC(=O)O)C(=O)N[C@H](C(=O)N[C@H]2CCCCNC(=O)[C@H](CC(N)=O)NC(=O)[C@@H](CC(=O)O)NC(=O)[C@H](Cc3cnc[nH]3)NC(=O)[C@@H](Cc3ccccc3)NC(=O)[C@H]([C@@H](C)CC)NC(=O)[C@@H](CCCN)NC2=O)[C@@H](C)CC)CS1 | 0.8% | 0.3% | 9.9% | 1.6% | 7.4% | 90.2% | 101% | 105% | 125% | 102%
Cc1cc(O)cc(O)c1C(=O)O | 4% | 6.6% | -7.6% | 26.5% | 21.9% | 90.4% | 99.6% | 104% | 110% | 146%
O=C(O)C1=C(CSc2nnnn2CS(=O)(=O)O)CS[C@@H]2[C@H](NC(=O)[C@H](O)c3ccccc3)C(=O)N12 | -17.7% | -22.2% | -16.8% | -1.6% | 9% | 102% | 110% | 103% | 101% | 138%
CC(=O)Oc1cccc(O)c1 | -28.2% | -27% | -7.5% | -14.1% | 4.7% | 76.1% | 83.1% | 68% | 72.2% | 109%
COC1=CC(=O)C(C(=O)c2ccccc2)=CC1=O | 4.7% | -3.3% | 43.5% | 1.9% | 41.9% | 131% | 73% | 148% | 96.7% | 108%
NC1(C(=O)O)CCCC1 | 17% | 16.2% | 5.1% | 2.1% | 15.9% | 86.1% | 123% | 113% | 148% | 96.3%
CO/N=C(\C(=O)N[C@@H]1C(=O)N2C(C(=O)O)=C(COC(C)=O)CS[C@H]12)c1csc(N)n1 | -48.1% | 10.1% | -6.9% | -20.3% | 4.5% | 82% | 102% | 99.4% | 110% | 110%

Arranged by length of the SMILES (descending): some entries from above
Compound | loss of total cells (Human fetal astrocytes [1]; 1.39 µM) | loss of total cells (Human fetal astrocytes [1]; 2.78 µM) | loss of total cells (Human fetal astrocytes [1]; 5.56 µM) | loss of total cells (Human fetal astrocytes [1]; 11.11 µM) | loss of total cells (Human fetal astrocytes [1]; 22.22 µM) | synaptosome phagocytosis (Human fetal astrocytes [2]; 1.39 µM) | synaptosome phagocytosis (Human fetal astrocytes [2]; 2.78 µM) | synaptosome phagocytosis (Human fetal astrocytes [2]; 5.56 µM) | synaptosome phagocytosis (Human fetal astrocytes [2]; 11.11 µM) | synaptosome phagocytosis (Human fetal astrocytes [2]; 22.22 µM)
COc1ccc([C@@H]2CC(=O)c3c(O)cc(O[C@@H]4O[C@H](CO[C@@H]5O[C@@H](C)[C@H](O)[C@@H](O)[C@H]5O)[C@@H](O)[C@H](O)[C@H]4O)cc3O2)cc1O | -4.9% | 4% | -10.3% | 22.3% | 0.7% | 120% | 88.1% | 119% | 95.4% | 126%
CC(=O)O[C@H]1CC[C@]2(C)C(C[C@@H](OC(C)=O)[C@]3(C)C4=CC(=O)O[C@H](c5ccoc5)[C@@]4(C)CCC23)C1(C)C (stereo partly drawn) [3-DEOXO-3beta-ACETOXYDEOXYDIHYDROGEDUNIN] | -8.3% | -2% | 26.7% | -5.8% | 1.1% | 122% | 92.8% | 139% | 97.7% | 78.2%
Nc1ncnc2c1ncn2[C@@H]1O[C@H](COP(=O)(O)O)[C@@H](O)[C@H]1O | 8% | -33.6% | -3.5% | -3.7% | 6.4% | 111% | 109% | 104% | 116% | 120%
OCCOCCN1CCN(C(c2ccccc2)c2ccc(Cl)cc2)CC1 (stereo not given) | 16.3% | -9.2% | -4.9% | 17% | -5.2% | 92.9% | 99.3% | 109% | 69.3% | 45.5%
CC(=O)N[C@@H](Cc1c[nH]c2ccccc12)C(=O)O | 9% | 11.2% | 15.2% | -1.3% | 19.7% | 115% | 94.3% | 148% | 100% | 104%
COC1=CC(=O)C(C(=O)c2ccccc2)=CC1=O | 4.7% | -3.3% | 43.5% | 1.9% | 41.9% | 131% | 73% | 148% | 96.7% | 108%
CC(=O)Nc1ncc([N+](=O)[O-])s1 | 29% | -29.4% | 5% | -9.5% | -0.9% | 135% | 82.9% | 101% | 62.1% | 93.8%
CC(=O)Oc1cccc(O)c1 | -28.2% | -27% | -7.5% | -14.1% | 4.7% | 76.1% | 83.1% | 68% | 72.2% | 109%
COc1c(O)cc(O)cc1O | -9.1% | 15.3% | 6.9% | 36.8% | 19.6% | 94% | 129% | 105% | 155% | 133%
NC1(C(=O)O)CCCC1 | 17% | 16.2% | 5.1% | 2.1% | 15.9% | 86.1% | 123% | 113% | 148% | 96.3%

Following part.

Compound | loss of total cells (Human fetal astrocytes [1]; 1.39 µM) | loss of total cells (Human fetal astrocytes [1]; 2.78 µM) | loss of total cells (Human fetal astrocytes [1]; 5.56 µM) | loss of total cells (Human fetal astrocytes [1]; 11.11 µM) | loss of total cells (Human fetal astrocytes [1]; 22.22 µM) | synaptosome phagocytosis (Human fetal astrocytes [2]; 1.39 µM) | synaptosome phagocytosis (Human fetal astrocytes [2]; 2.78 µM) | synaptosome phagocytosis (Human fetal astrocytes [2]; 5.56 µM) | synaptosome phagocytosis (Human fetal astrocytes [2]; 11.11 µM) | synaptosome phagocytosis (Human fetal astrocytes [2]; 22.22 µM)
CCn1cc(C(=O)O)c(=O)c2cc(F)c(N3CCNCC3)nc21 | -12.1% | 28.6% | -8.1% | 41.6% | -7.8% | 41.1% | 133% | 87.2% | 145% | 87.4%
CC(C)(C(=O)O)c1ccc(C(O)CCCN2CCC(C(O)(c3ccccc3)c3ccccc3)CC2)cc1 (stereo not given) [Fexofenadine hydrochloride] | 17.7% | -4.8% | 6.2% | 36.4% | 9.7% | 176% | 119% | 118% | 154% | 111%
COc1cc(O)c(C(=O)/C=C/c2ccc(OC)c(O)c2)c(OC)c1 | -13.1% | -15.5% | -11% | 19.6% | -1.5% | 103% | 80.3% | 77.1% | 104% | 110%
COC(=O)C(O)c1ccccc1 (stereo not given) | -15.6% | 13.3% | 28.2% | 38.7% | 16.7% | 109% | 115% | 139% | 124% | 158%
CC=CC1=C(C(=O)O)N2C(=O)[C@@H](NC(=O)[C@H](N)c3ccc(O)cc3)[C@H]2SC1 | -16.6% | -15.5% | -10.5% | -15.6% | -13.6% | 83.5% | 102% | 75.3% | 91.1% | 82.1%
CCCc1ncc(C[n+]2ccccc2C)c(N)n1 | -14.9% | -30.8% | 3.9% | 1.6% | 6.2% | 116% | 117% | 99.6% | 113% | 84.2%
COc1ccc(-c2cc(C(F)F)nn2-c2ccc(S(N)(=O)=O)cc2)cc1F | -36.3% | -17.5% | 2.5% | 1% | -16.5% | 107% | 98.6% | 98.4% | 84% | 95.9%
O=c1cccc2ccc(O)c(O)c2c1O | 0.4% | 30.7% | 26.1% | 32.2% | 57.6% | 77.7% | 104% | 87.4% | 82.2% | 78.1%
COc1ccc2c(c1)O[C@H]1c3ccc(OC)cc3OC[C@@H]21 | 15.6% | -10% | -15.3% | 38.7% | 4.8% | 124% | 63.1% | 94.8% | 100% | 89.4%
CCn1cc(C(=O)O)c(=O)c2cc(F)c(N3CCN(C)CC3)cc21 | -45.2% | 7.1% | -6.8% | 23.9% | 3.4% | 58.3% | 97.7% | 123% | 97.6% | 110%
C[C@H]1[C@H]2CC[C@H]3[C@@H]4CC=C5C[C@@H](N(C)C)CC[C@]5(C)[C@H]4CC[C@]23CN1C | -31.1% | -9.7% | -2.9% | -8.1% | 3.7% | 80.6% | 77.5% | 71.6% | 83.7% | 64.8%
CCCSc1ccc2[nH]c(NC(=O)OC)nc2c1 | -36.3% | 5.6% | 8.7% | 36.4% | -1.6% | 68.1% | 122% | 101% | 102% | 112%
Nc1ccc(S(=O)(=O)O)cc1.Nc1ccc(S(=O)(=O)O)cc1.[Zn] | 17.7% | -23% | -2.5% | -1.6% | -7.8% | 148% | 118% | 98.8% | 109% | 103%
COC(=O)C[C@H]1C(C)(C)C2(O)OC34CC2C(=O)[C@]1(C)C3CC[C@]1(C)C4=CC(=O)O[C@H]1c1ccoc1 (stereo partly drawn) [8beta-HYDROXYCARAPIN, 3,8-HEMIACETAL] | -4.7% | 1.3% | 36.6% | -10.3% | 3.3% | 109% | 78% | 144% | 83.6% | 148%
COc1cc2cc3c4cc(OC)c(OC)cc4cc[n+]3c(C)c2cc1OC | 19.9% | 26.4% | 23.2% | 11.3% | 39.4% | 122% | 119% | 131% | 126% | 81.1%
COC(=O)[C@H]1[C@H]2C[C@H]3c4[nH]c5ccccc5c4CCN3C[C@@H]2CC[C@@H]1O | -27% | -2.5% | -10.3% | 7.4% | 8.9% | 58.8% | 97.7% | 86.5% | 73.3% | 110%
COc1ccccc1OCC(O)COC(N)=O (stereo not given) | -55.6% | -15.5% | 9.9% | -14.8% | 13.6% | 92.9% | 93.5% | 94.2% | 128% | 123%
COC(=O)c1c(C)cc(OC(=O)c2c(C)cc(O)c(C=O)c2O)c(C)c1O | -12% | -3.3% | 5.3% | -18.7% | -6.3% | 129% | 84.3% | 117% | 76.3% | 112%
Cc1noc(NS(=O)(=O)c2ccc(N)cc2)c1C | -10.4% | -4.4% | 1.4% | 3.2% | 25.2% | 94.1% | 118% | 91.5% | 97.9% | 115%
